Results are given in words; binding and its absence hold for the method and conditions named. Some binding calls cover weakened binding; strength is not graded here.
Assays:
[1] = target: 45 kDa gelatin binding fragment of fibronectin (Sigma Cat. No. F0162) (UniProt P02751); test: ELISA on coated FN fragments, equimolar (FIG. 7A)
[2] = target: 30 kDa heparin binding fragment of fibronectin (Sigma Cat. No. F9911) (UniProt P02751); test: ELISA on coated FN fragments, equimolar (FIG. 7A)
[3] = target: Fibronectin (FN), full length, purified from human plasma (human) (UniProt P02751); test: ELISA, pre-coated ECM plate (FIG. 4A)
[4] = target: Fibronectin (FN), full length, purified from human plasma (human) (UniProt P02751); test: ELISA, pre-coated ECM plate, Fc-TEM1 at increasing concentrations (FIG. 4A)
[5] = target: Fibronectin (FN), full length, purified from human plasma (human) (UniProt P02751); test: ELISA on coated FN and FN fragments, equimolar (FIG. 7A)

Protein sequences, listed by entry. Tags and fused reporters are not part of them. Lines headed by an entry give the natural chain unless they say otherwise; changes in a name come on top. Chains listed by the source or under a name are the forms on record and can include a tag or linker. Residues count along the entry.
30 kDa heparin binding fragment of fibronectin (Sigma Cat. No. F9911) (P02751, residues 32-290): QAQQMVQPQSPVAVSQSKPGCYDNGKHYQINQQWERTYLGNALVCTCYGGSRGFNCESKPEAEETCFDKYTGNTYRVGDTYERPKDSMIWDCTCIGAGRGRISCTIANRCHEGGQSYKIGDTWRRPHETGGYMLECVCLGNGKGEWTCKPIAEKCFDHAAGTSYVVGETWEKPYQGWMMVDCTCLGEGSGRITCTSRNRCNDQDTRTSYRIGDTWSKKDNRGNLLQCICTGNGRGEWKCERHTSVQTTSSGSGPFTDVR
45 kDa gelatin binding fragment of fibronectin (Sigma Cat. No. F0162) (P02751, residues 291-608): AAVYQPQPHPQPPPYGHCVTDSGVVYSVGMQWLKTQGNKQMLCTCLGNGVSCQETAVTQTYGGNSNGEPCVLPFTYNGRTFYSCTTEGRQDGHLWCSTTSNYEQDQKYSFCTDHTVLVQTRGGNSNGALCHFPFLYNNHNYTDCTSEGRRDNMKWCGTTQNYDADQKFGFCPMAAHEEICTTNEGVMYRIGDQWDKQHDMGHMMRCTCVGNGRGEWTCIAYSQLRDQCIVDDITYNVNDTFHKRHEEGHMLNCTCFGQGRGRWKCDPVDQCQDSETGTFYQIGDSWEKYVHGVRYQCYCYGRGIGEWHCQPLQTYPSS
Fc-TEM1 (soluble recombinant endosialin: full-length TEM1 extracellular domain fused to monomeric murine IgG2b Fc) (Q9HCU0, form named): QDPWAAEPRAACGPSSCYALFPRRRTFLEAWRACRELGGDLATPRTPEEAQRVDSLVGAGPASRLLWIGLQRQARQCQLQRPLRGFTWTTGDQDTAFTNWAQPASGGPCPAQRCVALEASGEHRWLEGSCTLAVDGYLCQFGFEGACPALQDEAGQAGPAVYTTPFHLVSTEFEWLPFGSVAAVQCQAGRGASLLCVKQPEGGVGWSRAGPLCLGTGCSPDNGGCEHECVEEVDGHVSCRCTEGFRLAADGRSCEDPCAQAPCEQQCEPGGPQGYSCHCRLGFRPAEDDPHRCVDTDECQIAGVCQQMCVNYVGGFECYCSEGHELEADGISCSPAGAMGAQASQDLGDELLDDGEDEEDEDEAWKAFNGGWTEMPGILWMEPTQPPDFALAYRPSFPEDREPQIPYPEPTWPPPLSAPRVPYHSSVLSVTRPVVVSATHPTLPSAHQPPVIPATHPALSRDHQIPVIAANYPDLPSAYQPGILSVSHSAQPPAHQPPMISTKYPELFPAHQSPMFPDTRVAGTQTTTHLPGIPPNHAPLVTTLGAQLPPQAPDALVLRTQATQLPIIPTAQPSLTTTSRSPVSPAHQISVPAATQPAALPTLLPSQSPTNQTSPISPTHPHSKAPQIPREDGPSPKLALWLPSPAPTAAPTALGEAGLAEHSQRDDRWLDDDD

binding [1]: binds
binding [2]: binds
binding [3]: binds
binding [4]: binds
binding [5]: binds
Substance: Fc-TEM1 (soluble recombinant endosialin: full-length TEM1 extracellular domain fused to monomeric murine IgG2b Fc) (from UniProt Q9HCU0 18-687) (Fc fusion)
